Results from article PMC12706077.
Results are given in words; binding and its absence hold for the method and conditions named. Some entries that bind do so weakly or less than the wild type. Tags and fused reporters may be left off the sequences shown.

By UniProt entry, the sequences of proteins in these tests, tags left out. Residues count along the entry.
UniProt P40189, residues 23-918: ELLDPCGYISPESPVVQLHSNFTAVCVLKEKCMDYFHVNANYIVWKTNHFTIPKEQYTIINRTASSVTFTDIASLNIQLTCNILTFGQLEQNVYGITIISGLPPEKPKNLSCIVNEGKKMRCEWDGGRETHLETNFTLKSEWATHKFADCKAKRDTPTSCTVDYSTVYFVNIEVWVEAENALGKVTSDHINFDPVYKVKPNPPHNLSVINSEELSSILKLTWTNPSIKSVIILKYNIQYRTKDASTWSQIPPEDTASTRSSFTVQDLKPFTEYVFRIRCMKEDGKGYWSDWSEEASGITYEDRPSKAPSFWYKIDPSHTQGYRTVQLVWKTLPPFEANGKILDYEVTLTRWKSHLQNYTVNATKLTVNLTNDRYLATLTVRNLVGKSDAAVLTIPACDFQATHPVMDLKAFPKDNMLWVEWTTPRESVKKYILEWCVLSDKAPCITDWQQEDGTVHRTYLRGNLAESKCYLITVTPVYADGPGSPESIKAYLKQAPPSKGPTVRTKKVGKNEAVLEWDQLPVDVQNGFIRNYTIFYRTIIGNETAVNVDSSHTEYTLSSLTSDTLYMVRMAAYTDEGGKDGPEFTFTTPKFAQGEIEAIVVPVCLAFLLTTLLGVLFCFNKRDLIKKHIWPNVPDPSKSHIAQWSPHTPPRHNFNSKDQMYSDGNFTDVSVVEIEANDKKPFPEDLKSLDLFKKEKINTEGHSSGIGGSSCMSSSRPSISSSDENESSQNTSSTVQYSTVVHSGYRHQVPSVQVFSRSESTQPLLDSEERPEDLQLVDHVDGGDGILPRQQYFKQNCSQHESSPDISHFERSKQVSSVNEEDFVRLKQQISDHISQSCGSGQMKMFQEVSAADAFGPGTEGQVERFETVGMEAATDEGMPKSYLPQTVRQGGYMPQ

Target: IL6ST (gp130) (human (endogenous in kidney tissue)) (UniProt P40189)
Experiment: thermal proteome profiling - proteome integral solubility alteration assay (TPP-PISA); 1 or 10 µM C3-LHF1 added to human kidney tissue lysate (50 mM HEPES pH 7.4/100 mM NaCl/2.5 mM EDTA), 1 h at 37 °C; heat denaturation 5 min at 53/56/59 °C, pooled; soluble proteins by mass spectrometry; n = 3 technical replicates; only the binder purified

- binding: binds
B1: C3-LHF1 (C3, lupus-associated human fragment 1), recombinant, C-terminally His-tagged (domain or fragment)
chain: AEENCFIQKSDDKVTLEERLDKACEPGVDYVYKTRLVKVQLSNDFDEYIMAIEQTIKSGSDEVQVGQQRTFISPIKCREALKLEEKKHYLMWGLSSDFWGEKPNLSYIIGKDTWVEHWPEEDECQDEENQKQCQDLGAFTESMVVFGCPN
